In PubChem BioAssay AID588497 (NMMLSC, 2011):
Screen size: about 360,000 compounds; about 780 (0.22%) were called active. Inconclusive means that the source gave no clear call. Such entries were picked first, then a sample of the others. Rule as the data show it: active = inhibition above about 35% (passing the limit was not always enough); inconclusive = no clear call, values can overlap the other calls.

What follows are compounds tested on Botulinum neurotoxin type F light chain protease (Clostridium botulinum) (assay: BoNT/F light chain protease inhibitors, primary screen, biochemical, flow cytometry, MLPCN library (AID 588497; also: plate controls were buffer without enzyme for full effect and enzyme alone for no effect)). Conditions: Multiplex microsphere protease cleavage assay, at 10 µM, hits give high values.

Compound	inhibition
COc1ccc(CN2CSC(=S)N(Cc3ccc(OC)cc3)C2)cc1	inconclusive: 59.5%
CCOC(=O)c1c(N2CCN(c3ccccc3)CC2)cc(C)nc1C	inconclusive: -18.8%
Cc1cc(-c2ccccc2)c2c(=O)n(-c3ccccc3)[nH]c2n1	inconclusive: 3.6%
CCCCCCC(C)OC(=O)c1ccccc1C(=O)O (configuration not stated)	active: 34.7%
Cc1ccc(NC(=O)c2ccc3snnc3c2)cc1C	inactive: -5.6%
Cc1ccc(C(=O)OCC(=O)c2ccc(CC(=O)N3CCOCC3)s2)cc1C	inactive: 9.2%
CCCc1c(C(=O)Nc2ccc(F)cc2C)cnn1-c1ccccc1	inconclusive: -142%
O=C(NCCN1CCCCC1)Nc1ccc([N+](=O)[O-])cc1	inconclusive: 56%
COc1cc(CN2CCC(Cc3ccccc3)CC2)cc(OC)c1OC	inconclusive: 27.5%
O=C(O)c1cccc(S(=O)(=O)N2CCC(n3nnc4cc(C(F)(F)F)ccc43)CC2)c1	inactive: -1%
COc1cc(OC)c2c(-c3ccccc3)cc(=O)oc2c1C(CC(=O)N1CCOCC1)c1ccc(N(C)C)cc1 (configuration not stated)	inactive: -11.6%
Cn1c(=NC(=O)c2cnccn2)sc2ccccc21	inconclusive: 49.6%
CCOC(=O)c1sc(NC(=O)CSc2ccccn2)c(C#N)c1C	inactive: 5.9%
COC(=O)c1ccc2nc(C3CCCCC3)c(Cc3ccc(OC)cc3C)n2c1	inactive: 6.2%
Cc1cc2c(cn1)C(CCC#N)(CCC#N)c1ccccc1-2	inconclusive: -10.8%
COc1cc2c(cc1OC)CN(CC(=O)Nc1ccc(C)c(C)c1)CC2	inactive: 6.5%
COC(=O)[C@]12CCCCC=C1N(Cc1ccccc1)C(=O)[C@H](CC(=O)N1CCOCC1)C2	inactive: -3.7%
CC1CCN(C2=NC(=O)/C(=C/c3ccc(O)cc3)S2)CC1	inconclusive: -46.9%
O=c1c2ccccc2ncn1-c1ccc([N+](=O)[O-])cc1Cl	inconclusive: -2.4%
Cc1nnc(NC(=O)CN2CCN(Cc3ccccc3Cl)CC2)s1	inconclusive: -61.1%
O=C(O)c1cccc(NC(=O)c2cn(-c3ccccc3)nc2-c2ccc([N+](=O)[O-])cc2)c1	inconclusive: 1.7%
COC(=O)c1ccc(NC(=O)Cc2ccc(C)cc2)cc1	inconclusive: -17.5%
CCOc1ccc(NC(=O)c2cc([N+](=O)[O-])ccc2N2CCOCC2)cc1	inconclusive: 18.3%

Compound	inhibition
COc1ccccc1N(C)S(=O)(=O)c1ccc(C(=O)Nc2nnc(C)s2)cc1	inconclusive: -1.3%
CCN1CCN(C(C(=O)NC2CCCC2)c2cc3c(cc2[N+](=O)[O-])OCO3)CC1 (configuration not stated)	active: 35.9%
CC1CCCC(C)N1CCCNC(=O)c1ccc2c(c1)NC(=O)c1ccccc1S2 (configuration not stated)	inactive: -8.1%
CCOc1ccc(C(=O)N2CCN(S(=O)(=O)c3cccs3)CC2)c(OCC)c1	inactive: 7.8%
CCCCCCCCC(=O)NNC(=O)c1c(O)c2ccccc2n(CC)c1=O	active: 39.3%
CC1(C)C(Cl)C(=O)C(C(=O)c2ccccc2)C(=O)C1Cl (configuration not stated)	inconclusive: 12.8%
CCOP(=O)(OCC)C(NC(=O)c1cccs1)c1ccccc1 (configuration not stated)	inactive: -3.9%
C/C(CC(=O)Nc1ccc(Cl)cc1C(F)(F)F)=N\NC(=O)c1cccs1	inconclusive: 41%
Cc1ccc(S(=O)(=O)NCCNC(=O)C2CCCNC2=O)cc1 (configuration not stated)	inconclusive: -29%
CC(=O)NC(Cc1ccc(C(C)C)cc1)C(=O)NC1CCN(c2nc(C)cc(C)n2)CC1 (configuration not stated)	inconclusive: -11.3%
CCCOc1cccc(C(=O)Nc2cccc3ncccc23)c1	inconclusive: -4.3%
O=C1NC(=Nc2ccccc2Br)SC1(CO)CO	inconclusive: 22%
Cc1ccc(C)c(OCCCCN2CCNCC2)c1C	inconclusive: -15.9%
COc1ccc(C(CNC(=O)C(CCSC)NC(=O)c2ccccc2Cl)N2CCCC2)cc1 (configuration not stated)	active: 43.1%
CN(C)S(=O)(=O)NCC1CCCN(Cc2cc3ccccc3s2)C1 (configuration not stated)	inconclusive: 26.8%
COc1ccc(OCCC(=O)N2CCN(C)CC2)cc1	inconclusive: -19.4%
CC1CC=C(c2ccccc2)C(=S)N1 (configuration not stated)	inconclusive: -78.1%
CCCc1c(C(=O)N/N=C/c2cccc3ccccc23)nnn1-c1nonc1N	inactive: 0.5%
Cc1ccc(NC(=O)NCCN2CCCCC2)cc1	inconclusive: 20%
S=c1[nH]nc(-c2ccncc2)n1/N=C/C=C/c1ccccc1	inconclusive: 9.5%
O=C(Nc1ccccn1)c1ccc(-c2ccccc2)cc1	inconclusive: -5.3%
CCCCCCn1c(O)c(/C=N/N2CCCCCC2)c(=O)[nH]c1=O	inconclusive: 142%
COc1ccc(CNCCc2ccc(Cl)cc2)c(OC)c1OC	inconclusive: -26.5%

A run of entries from the list above:
Compound	inhibition
S=c1[nH]nc(-c2ccncc2)n1/N=C/C=C/c1ccccc1	inconclusive: 9.5%
O=C(Nc1ccccn1)c1ccc(-c2ccccc2)cc1	inconclusive: -5.3%

(list continues)

Compound	inhibition
CC(=NNC(=S)N1CCCCC1)c1ccccn1	active: 73.2%
O=C(Nc1cc([N+](=O)[O-])ccc1O)c1cccc(C(=O)Nc2cc([N+](=O)[O-])ccc2O)c1	inconclusive: 4.4%
CCC1(c2ccccc2)NC(=O)N(CC(=O)N(C)CC(=O)Nc2ccc(F)c(F)c2F)C1=O (configuration not stated)	inconclusive: 18.4%
COc1ccc(CCNC(=O)c2cc3cc(F)ccc3nc2C)cc1OC	inactive: 2.1%
CCOC(=O)NC(C(Cl)(Cl)Cl)S(=O)(=O)c1ccccc1 (configuration not stated)	inconclusive: -6.8%
CN(C)CC(CCC(CN(C)C)C(=O)c1ccccc1)C(=O)c1ccccc1 (configuration not stated)	inconclusive: 11.4%
Cc1cccc(CSc2nnc(CCNC(=O)OC(C)(C)C)o2)c1	inconclusive: -80.7%
CC(=O)C1=C(C)Nc2ncnn2C1c1cccc(OCc2ccccc2)c1 (configuration not stated)	inactive: 2%
O=C(N/N=C/c1ccc(Cl)cc1Cl)Nc1ccccc1	inactive: 9.1%
COc1cccc(CNCc2ccc(OC)cc2OC)c1	inconclusive: 0.6%
COc1cc(CNC(=O)c2cc(C(=O)NCc3cc(OC)cc(OC)c3)n(C)n2)cc(OC)c1	inconclusive: -17.9%
Cc1ccc(S(=O)(=O)N2CCC(C(=O)OC3CCOC3=O)CC2)cc1C (configuration not stated)	inconclusive: -10.9%
COc1ccc(S(=O)(=O)N2CCN(Cc3cccc([N+](=O)[O-])c3)CC2)cc1	inconclusive: 20.5%
O=C(O)CC(=O)Nc1ccccc1C(=O)O	inconclusive: -14.6%
CC(C)(C)c1ccc(-c2nnc(N)o2)cc1	inconclusive: -61.5%
CSc1ccc(C(O)c2ncc(-c3cccc(F)c3)[nH]2)cc1 (configuration not stated)	inactive: -16%
CCC(C)c1cc(S(=O)(=O)N2CCOCC2)ccc1OC (configuration not stated)	active: 43.7%
NC(=O)c1ccc(NC(=O)C2CCCO2)cc1 (configuration not stated)	inconclusive: -4.7%
CCN(CC)CCOC(=O)c1ccc(N/C=C(/C#N)c2nc(-c3ccc(OC)cc3)cs2)cc1	inconclusive: -39.4%
CCC[n+]1c2ccccc2cc2ccccc21	inconclusive: -4.7%
Cc1ccc(S(=O)(=O)N(Cc2cc3cc4c(cc3[nH]c2=O)OCCO4)CC2CCCO2)cc1 (configuration not stated)	inactive: 2.9%
FC(F)(F)c1cccnc1Oc1ccc(C2=NCCS2)cc1	inconclusive: -34.2%
COc1cc(SC)ccc1C(=O)NCCc1c[nH]c2ccccc12	inconclusive: 22%

3 compounds out of the list, sorted by molar mass, falling:
Compound	inhibition
CCC1(c2ccccc2)NC(=O)N(CC(=O)N(C)CC(=O)Nc2ccc(F)c(F)c2F)C1=O (configuration not stated)	inconclusive: 18.4%
CC1CCCC(C)N1CCCNC(=O)c1ccc2c(c1)NC(=O)c1ccccc1S2 (configuration not stated)	inactive: -8.1%
Cc1ccc(S(=O)(=O)NCCNC(=O)C2CCCNC2=O)cc1 (configuration not stated)	inconclusive: -29%

Carrying on:

Compound	inhibition
Cn1c(Cc2nc(-c3cnccn3)no2)nnc1SCC(=O)Nc1ccccc1	inconclusive: 39.8%
O=C(CN1C(=O)c2ccccc2C1=O)N1CCN(c2ccccc2)CC1	inconclusive: -60.7%
O=C(CN(c1ccccc1)S(=O)(=O)c1ccc(F)cc1)NC1CCCCCC1	inactive: 8%
O=C1NC(Cc2ccccc2)c2nc3cc(Cl)ccc3c(=O)n2-c2ncccc21 (configuration not stated)	inactive: -5.3%
Cc1cc(C)c2c(N)c(-c3nnc(SCc4ccc(Cl)cc4)n3C)sc2n1	inconclusive: -11.9%
O=C(NCc1ccccc1)C1CCCN1C(=O)Nc1ccccc1[N+](=O)[O-] (configuration not stated)	inconclusive: -17.7%
Cc1ccc(NC(=O)c2c(-c3ccccc3Cl)noc2C)nc1	inconclusive: 34.6%
COc1ccc(-n2c(-c3ccccc3)c[n+]3c2CCC3)cc1	inconclusive: -66.2%
O=C(O)COc1ccc(-c2nnn(Cc3ccccc3F)n2)cc1	inconclusive: -19.7%
COc1ccc(C(=O)c2cn[nH]c2-c2cc(C)ccc2O)cc1	inactive: -11.7%
CCc1nc2c(OCCc3cccc(OC)c3)cccn2c1N(C=O)Cc1ccccc1	inactive: 8.3%
COCCNc1nc(NCCN2CCNC2=O)c2sc(-c3ccccc3)cc2n1	inactive: -1.1%
CC1CN(S(=O)(=O)c2ccc(C(=O)OCc3ccc(C#N)cc3)cc2)CC(C)O1 (configuration not stated)	inconclusive: -3.5%
Cc1ccc2c(CN(C)Cc3cccc(Cl)c3)cc(=O)oc2c1C	inconclusive: 17.1%
OCCC1CN(Cc2cn[nH]c2C2CCCCC2)CCN1Cc1ccccc1 (configuration not stated)	inactive: -6.3%
CCn1c(SCC(N)=O)nnc1-c1ccc(S(=O)(=O)N2CCN(C)CC2)cc1	inconclusive: -17%
COc1ccccc1CCNS(=O)(=O)c1ccc(C(=O)O)n1C	inactive: -11.9%
Nc1nonc1-n1nnc(C(=O)N/N=C/c2ccccc2Cl)c1COc1ccc(F)cc1	inconclusive: 7.4%
O=C(CN(CCc1ccccc1)C(=O)CN1C(=O)COc2ccccc21)NCc1ccco1	inactive: 2.4%
COc1cccc(OC)c1/C=C/C(=O)NC1CCCCC1	inconclusive: -11%
O=C(c1cc([N+](=O)[O-])[nH]n1)N1CCSCC1	active: 36.2%
CCn1nccc1C(=O)Nc1ccc(C)c(C)c1	inconclusive: -11.4%
CCN(CC)c1ccc(/C=N/n2c(-c3ccccc3Br)n[nH]c2=S)cc1	inconclusive: -12.5%
